Test results taken from PubChem BioAssay (Tox21).
The shares of active, inactive and inconclusive entries below differ from those in the screen. For some of these results: Where the call is inconclusive, the potency comes from a doubtful curve fit. The source made the active and inactive calls. Calls come from the whole dose curve; as a rule, active = well fitted inhibition curve with a large enough effect in the repeat runs; inconclusive = weak or mixed curves; inactive = no such curve, though single readings can be large or run the other way.

Amino acid sequences for entries named in this document (tags omitted).
UniProt P10635, whole entry, looked up: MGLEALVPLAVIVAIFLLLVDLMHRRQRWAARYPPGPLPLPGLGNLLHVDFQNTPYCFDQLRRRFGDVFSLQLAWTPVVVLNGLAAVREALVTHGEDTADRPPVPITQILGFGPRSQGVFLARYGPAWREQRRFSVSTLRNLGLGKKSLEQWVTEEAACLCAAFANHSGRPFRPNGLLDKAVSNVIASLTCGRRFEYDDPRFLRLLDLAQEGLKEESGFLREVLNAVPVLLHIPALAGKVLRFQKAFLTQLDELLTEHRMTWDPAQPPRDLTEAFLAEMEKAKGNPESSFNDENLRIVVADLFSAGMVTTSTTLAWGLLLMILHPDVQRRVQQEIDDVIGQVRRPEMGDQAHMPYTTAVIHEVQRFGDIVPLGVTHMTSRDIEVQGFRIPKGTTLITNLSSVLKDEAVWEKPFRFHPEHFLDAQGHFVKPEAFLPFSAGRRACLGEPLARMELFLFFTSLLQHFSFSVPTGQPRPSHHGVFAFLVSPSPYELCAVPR
UniProt P11712, whole entry, looked up: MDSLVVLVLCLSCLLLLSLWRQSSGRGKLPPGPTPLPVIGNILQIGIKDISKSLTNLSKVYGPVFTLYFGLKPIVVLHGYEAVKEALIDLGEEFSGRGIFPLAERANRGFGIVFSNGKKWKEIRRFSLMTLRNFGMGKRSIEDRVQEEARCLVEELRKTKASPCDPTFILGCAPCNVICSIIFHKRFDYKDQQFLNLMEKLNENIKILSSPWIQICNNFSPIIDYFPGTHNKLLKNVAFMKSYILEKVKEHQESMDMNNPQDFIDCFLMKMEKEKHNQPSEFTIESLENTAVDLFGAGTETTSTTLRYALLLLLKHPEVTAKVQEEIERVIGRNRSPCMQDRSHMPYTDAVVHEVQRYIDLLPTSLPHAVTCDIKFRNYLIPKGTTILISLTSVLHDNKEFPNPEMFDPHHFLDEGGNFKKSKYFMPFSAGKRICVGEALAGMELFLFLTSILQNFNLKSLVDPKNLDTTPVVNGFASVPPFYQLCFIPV
UniProt P05177, whole entry, looked up: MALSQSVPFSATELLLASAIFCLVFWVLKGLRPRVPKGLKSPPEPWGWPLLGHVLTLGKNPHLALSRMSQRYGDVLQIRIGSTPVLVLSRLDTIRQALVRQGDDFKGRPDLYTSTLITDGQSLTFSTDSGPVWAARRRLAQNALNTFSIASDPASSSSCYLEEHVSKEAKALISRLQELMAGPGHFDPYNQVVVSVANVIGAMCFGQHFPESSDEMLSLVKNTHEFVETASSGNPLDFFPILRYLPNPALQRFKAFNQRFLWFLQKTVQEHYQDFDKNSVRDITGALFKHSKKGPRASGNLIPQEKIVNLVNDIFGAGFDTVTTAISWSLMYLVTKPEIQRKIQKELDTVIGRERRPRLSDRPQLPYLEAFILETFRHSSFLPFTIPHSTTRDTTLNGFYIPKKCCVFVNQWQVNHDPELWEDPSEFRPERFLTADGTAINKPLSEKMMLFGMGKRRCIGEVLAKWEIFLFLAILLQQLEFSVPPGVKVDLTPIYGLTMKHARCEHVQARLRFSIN
UniProt P08684, whole entry, looked up: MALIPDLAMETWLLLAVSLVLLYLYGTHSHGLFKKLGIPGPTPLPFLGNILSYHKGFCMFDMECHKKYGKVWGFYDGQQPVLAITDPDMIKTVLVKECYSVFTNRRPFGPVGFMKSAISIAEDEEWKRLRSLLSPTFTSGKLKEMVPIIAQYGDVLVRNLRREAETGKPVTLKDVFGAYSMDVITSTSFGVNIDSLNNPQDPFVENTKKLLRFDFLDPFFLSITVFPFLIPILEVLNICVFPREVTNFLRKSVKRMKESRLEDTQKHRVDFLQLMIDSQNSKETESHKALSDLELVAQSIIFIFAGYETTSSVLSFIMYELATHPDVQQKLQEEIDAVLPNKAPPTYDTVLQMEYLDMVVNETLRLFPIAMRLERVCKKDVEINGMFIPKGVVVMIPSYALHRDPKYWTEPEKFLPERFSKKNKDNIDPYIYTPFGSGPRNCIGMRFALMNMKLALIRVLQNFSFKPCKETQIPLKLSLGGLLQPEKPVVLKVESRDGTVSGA

What was measured:
[1] = target: Cytochrome P450 2D6 (Homo sapiens) (UniProt P10635); assay: Cytochrome P450 Family 2 Subfamily D Member 6 (CYP2D6) small molecule antagonists: luciferase reporter qHTS assay (AID 1671196); note: potency is the fitted concentration of half-maximal effect
Summary of the method: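 CYP2D6 activity was followed as luminescence from its luciferin product after a 1 h NADPH-driven reaction at room temperature. Enzyme-substrate mix and compound were pre-incubated for 10 min, and the signal was read 20 min after adding detection reagent.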

[2] = target: Cytochrome P450 2C9 (Homo sapiens) (UniProt P11712); assay: Cytochrome P450 Family 2 Subfamily C Member 9 (CYP2C9) small molecule antagonists: luciferase reporter qHTS assay (AID 1671198); note: potency is the fitted concentration of half-maximal effect
Summary of the method: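 Enzyme-substrate mix preincubated with compound 10 min at room temperature; reaction started with NADPH regeneration solution, 1 h 37C. Luminescent luciferin product read after 20 min detection reagent.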

[3] = target: Cytochrome P450 1A2 (Homo sapiens) (UniProt P05177); assay: Cytochrome P450 Family 1 Subfamily A Member 2 (CYP1A2) small molecule antagonists: luciferase reporter qHTS assay (AID 1671199); note: potency is the fitted concentration of half-maximal effect
Summary of the method: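 Luminescence from luciferin formed by CYP1A2 from a proluciferin substrate, read 20 min after detection reagent. Compound was pre-incubated 10 min with enzyme-substrate, and reaction started with NADPH regeneration solution for 1 h at room temperature; furafylline control.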

[4] = target: Cytochrome P450 3A4 (Homo sapiens) (UniProt P08684); assay: Cytochrome P450 Family 3 Subfamily A Member 4 (CYP3A4) small molecule antagonists: luciferase reporter qHTS assay (AID 1671201); note: series mostly up to about 120 µM
Summary of the method: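 Luminescent readout (RLU) proportional to CYP3A4 activity, from luciferin generated off a proluciferin substrate. Enzyme–substrate mix plus compound 10 min at room temp, NADPH regeneration 1 h, detection reagent 20 min.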
Note: nearly all actives have a fitted effect of over 50% in size.

c1ccc(C[n+]2cccc3ccccc32)cc1
Potency [1]: active: 3.17 µM | Potency [2]: inconclusive: 63.3 µM [inhibitor, partial curve] | Potency [3]: inconclusive: 79.6 µM [inhibitor, partial curve, poor fit]

CC1(C)C(=O)N(Br)C(=O)N1Br
Potency [1]: inconclusive: 35.6 µM [inhibitor, partial curve] | Potency [2]: inconclusive: 89.4 µM [inhibitor, single point] | Potency [4]: inactive

O=C(O)Cc1ccccc1Oc1ccc(Cl)cc1Cl
Potency [1]: inconclusive: 34.7 µM [inhibitor, partial curve, poor fit] | Potency [2]: active: 38.9 µM | Potency [3]: inactive | Potency [4]: inactive

CCN(CCC#N)c1ccccc1
Potency [1]: inconclusive: 56.4 µM [inhibitor, partial curve] | Potency [2]: inconclusive: 35.6 µM [inhibitor, full curve]

Cc1c[nH]c(=S)[nH]c1=O
Potency [1]: inconclusive: 79.9 µM [inhibitor, single point] | Potency [2]: inconclusive: 79.9 µM [inhibitor, partial curve, poor fit]

CC(=O)CCC(=O)O
Potency [1]: inactive | Potency [3]: inactive
